These are yes or no findings as the source states them, for the method shown. In cells and extracts the contact can be indirect. Some results given as binding are weak or reduced against the parent protein; the word gives no strength. Where a sequence is shown, tags or fusion partners need not be part of it.
Columns and labels:
[1] = target: WT YOD1-FLAG (UniProt Q5VVQ6); experiment: co-IP; IP with Anti-FLAG M2 Affinity Gel under native conditions from TorsinKO HeLa cells co-expressing MLF2-HA and a FLAG-tagged construct for 24 h; NET buffer (150 mM NaCl, 50 mM Tris pH 7.4, 0.5% NP-40) with 5 mM NEM; immunoblot against FLAG and HA
[2] = target: T1, FLAG-tagged UBXD1 (human (amplified from HeLa cell cDNA)) (UniProt Q9BZV1); experiment: as above
T1 sequence: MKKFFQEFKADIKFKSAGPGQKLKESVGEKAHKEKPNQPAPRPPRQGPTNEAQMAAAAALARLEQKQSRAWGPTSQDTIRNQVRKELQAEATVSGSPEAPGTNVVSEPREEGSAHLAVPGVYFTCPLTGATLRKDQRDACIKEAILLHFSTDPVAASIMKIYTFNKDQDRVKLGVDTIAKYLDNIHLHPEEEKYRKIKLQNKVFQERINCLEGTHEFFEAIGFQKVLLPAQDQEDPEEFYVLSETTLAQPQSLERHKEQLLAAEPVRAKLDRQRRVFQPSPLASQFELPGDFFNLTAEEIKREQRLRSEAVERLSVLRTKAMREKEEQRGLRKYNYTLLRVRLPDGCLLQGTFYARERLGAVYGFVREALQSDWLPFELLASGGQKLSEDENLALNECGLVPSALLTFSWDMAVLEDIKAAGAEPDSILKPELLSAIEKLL

Sequences of proteins named here, by UniProt entry; tags and fusion partners are left off.
UniProt Q5VVQ6: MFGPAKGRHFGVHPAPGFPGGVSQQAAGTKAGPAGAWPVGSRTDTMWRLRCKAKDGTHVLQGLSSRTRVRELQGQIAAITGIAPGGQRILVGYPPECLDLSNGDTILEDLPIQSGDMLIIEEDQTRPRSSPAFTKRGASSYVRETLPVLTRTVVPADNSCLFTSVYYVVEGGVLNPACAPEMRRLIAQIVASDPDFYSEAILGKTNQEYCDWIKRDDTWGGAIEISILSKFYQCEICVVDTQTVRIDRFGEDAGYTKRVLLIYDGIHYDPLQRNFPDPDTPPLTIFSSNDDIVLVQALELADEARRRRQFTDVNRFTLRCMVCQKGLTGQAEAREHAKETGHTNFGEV

B1: myeloid leukemia factor 2 (MLF2), HA-tagged (protein, UniProt Q15773 1-248)
chain: MFRFMRDVEPEDPMFLMDPFAIHRQHMSRMLSGGFGYSPFLSITDGNMPGTRPASRRMQQAGAVSPFGMLGMSGGFMDMFGMMNDMIGNMEHMTAGGNCQTFSSSTVISYSNTGDGAPKVYQETSEMRSAPGGIRETRRTVRDSDSGLEQMSIGHHIRDRAHILQRSRNHRTGDQEERQDYINLDESEAAAFDDEWRRETSRFRQQRPLEFRRLESSGAGGRRAEGPPRLAIQGPEDSPSRQSRRYDW
binding [1]: binds
binding [2]: binds
